A short description of this series: Block resistance testing of coatings (based on ASTM D4946-89). Further details: key: 10: No tack; 09: Trace tack; 08: Slight tack; 07: Slight tack; 06: Moderate tack; 05: Moderate tack; 04: Severe tack, but no seal; 03: 05%-25% seal; 02: 25%-50% seal; 01: 50%-75% seal; 100% seal. The conditions noted are these: for Block Rating after Drying 4 Day RT: 4 day dry; for Block Rating after Drying 7 Day RT: 7 day dry.

Where [1] appears, read: fluorocarbon level 5000 ppm on binder solids.
The mark [2] stands for this setting: fluorocarbon level 10000 ppm on binder solids.
Setting [3] is: fluorocarbon level 1000 ppm on binder solids.

Regarding `N.N.O=P(O)(O)OCC(F)(F)C(F)(F)C(F)(F)F` [Example 8], under setting [1], the “Block Rating after Drying 4 Day RT” value was determined as 10 and the “Block Rating after Drying 7 Day RT” value was determined as 10.

On to `N.O=S(=O)(O)OCC(F)(F)C(F)(F)C(F)(F)F` [Example 9], for which the “Block Rating after Drying 7 Day RT” value under setting [2] amounted to 10. As to `N.N.O=P(O)(O)OCCC(F)(F)C(F)(F)C(F)(F)C(F)(F)F` [Example 12, Nonafluorohexyl Phosphate], under setting [3], the “Block Rating after Drying 4 Day RT” value was 10 and the “Block Rating after Drying 7 Day RT” value is on record as 10. Turning to `N.O=S(=O)(O)OCCC(F)(F)C(F)(F)C(F)(F)C(F)(F)F` [Example 13, Nonafluorohexyl Sulfate], the “Block Rating after Drying 7 Day RT” value under setting [1] is on record as 10. For the same compound, under setting [2], the “Block Rating after Drying 4 Day RT” value stood at 10 and the “Block Rating after Drying 7 Day RT” value is 10. For `O=S(=O)([O-])C(F)(F)C(F)(F)C(F)(F)C(F)(F)C(F)(F)C(F)(F)F.[K+]` [Example 14], under setting [2], the “Block Rating after Drying 7 Day RT” value is on record as 10.

The values above are taken from patent publication US20080206469A1, “Aqueous compositions and processes including fluorocarbons” (priority 2007, published 2008).
